Source: article PMC9785969, “Synthesis, Biological Evaluation, and Molecular Dynamics of Carbothioamides Derivatives as Carbonic Anhydrase II and 15-Lipoxygenase Inhibitors” (Molecules, 2022)
The structures given here were assigned with low confidence; some may be wrong.

Protein sequences, listed by entry. Tags and fused reporters are not part of them.
UniProt P08170, whole entry: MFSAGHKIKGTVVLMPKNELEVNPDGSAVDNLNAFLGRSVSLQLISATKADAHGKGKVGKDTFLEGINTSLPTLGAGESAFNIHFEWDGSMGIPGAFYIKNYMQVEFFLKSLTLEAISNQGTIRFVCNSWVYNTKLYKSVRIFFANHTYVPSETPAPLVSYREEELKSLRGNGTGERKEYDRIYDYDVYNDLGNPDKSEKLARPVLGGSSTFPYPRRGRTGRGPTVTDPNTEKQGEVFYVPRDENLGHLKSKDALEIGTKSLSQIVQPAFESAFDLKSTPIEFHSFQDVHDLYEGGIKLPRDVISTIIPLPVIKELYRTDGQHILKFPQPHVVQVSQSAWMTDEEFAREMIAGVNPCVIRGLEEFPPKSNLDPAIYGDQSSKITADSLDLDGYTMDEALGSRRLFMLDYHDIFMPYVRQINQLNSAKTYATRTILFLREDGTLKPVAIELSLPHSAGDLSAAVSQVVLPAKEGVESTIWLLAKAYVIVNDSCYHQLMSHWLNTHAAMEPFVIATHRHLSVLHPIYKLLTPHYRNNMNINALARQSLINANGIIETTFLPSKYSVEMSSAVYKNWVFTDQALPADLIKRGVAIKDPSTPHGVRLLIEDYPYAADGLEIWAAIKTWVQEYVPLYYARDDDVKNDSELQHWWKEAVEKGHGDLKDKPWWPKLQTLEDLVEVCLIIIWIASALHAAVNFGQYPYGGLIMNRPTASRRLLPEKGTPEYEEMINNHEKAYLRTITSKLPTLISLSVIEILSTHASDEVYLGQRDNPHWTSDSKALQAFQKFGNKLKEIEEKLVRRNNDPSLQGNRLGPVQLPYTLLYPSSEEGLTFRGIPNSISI
UniProt P00921, whole entry: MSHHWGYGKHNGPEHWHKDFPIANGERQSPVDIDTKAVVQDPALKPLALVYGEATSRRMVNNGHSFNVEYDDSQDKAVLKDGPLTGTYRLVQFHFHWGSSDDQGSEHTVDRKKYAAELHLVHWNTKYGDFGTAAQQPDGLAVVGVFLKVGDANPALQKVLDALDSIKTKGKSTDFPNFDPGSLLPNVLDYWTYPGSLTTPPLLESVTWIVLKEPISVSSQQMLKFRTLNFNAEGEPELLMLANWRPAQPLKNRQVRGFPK

How the values were obtained:
15-lipoxygenase (15-LOX) = 15-lipoxygenase (15-LOX) (Glycine max, UniProt P08170); assay: Lipoxygenase (15-LOX) inhibition assay, linoleic acid substrate, absorbance 234 nm; assay type: biochemical
[1] = target: bovine carbonic anhydrase II (b-CA II) (Bos taurus, UniProt P00921); assay: Carbonic anhydrase (b-CA II) inhibition assay, p-nitrophenyl acetate hydrolysis; assay type: biochemical; settings: for IC50: read-out: b-CA II IC50 ± SEM, mean of three experiments

Row | Structure (SMILES) | IC50 (15-lipoxygenase (15-LOX); read-out: 15-LOX IC50 ± SEM, mean of three experiments) | IC50 [1] | 15-LOX inhibition (15-lipoxygenase (15-LOX); final concentration of 100 μM) | fold less potent towards CA II compared with compound 3h ([1]; vs 3h)
1 | NC(=S)N/N=C/c1ccc(Cl)c([N+](=O)[O-])c1 | 540 nM | 580 nM | – | –
2 | NC(=S)N/N=C/c1cccs1 | – | 3710 nM | ---^b (Compounds showing <50% inhibition) | ≈ 29 fold
